The test concerns the target AF594-labeled AAT (human) (UniProt P01009). The experiment in a line: on-bead library screen; red-only fluorescent beads with AF594-AAT in AF488-CHO HCPs, Edman sequencing.

Protein sequences, listed by entry. Tags and fused reporters are not part of them. Residues count along the entry.
UniProt P01009, residues 25-418: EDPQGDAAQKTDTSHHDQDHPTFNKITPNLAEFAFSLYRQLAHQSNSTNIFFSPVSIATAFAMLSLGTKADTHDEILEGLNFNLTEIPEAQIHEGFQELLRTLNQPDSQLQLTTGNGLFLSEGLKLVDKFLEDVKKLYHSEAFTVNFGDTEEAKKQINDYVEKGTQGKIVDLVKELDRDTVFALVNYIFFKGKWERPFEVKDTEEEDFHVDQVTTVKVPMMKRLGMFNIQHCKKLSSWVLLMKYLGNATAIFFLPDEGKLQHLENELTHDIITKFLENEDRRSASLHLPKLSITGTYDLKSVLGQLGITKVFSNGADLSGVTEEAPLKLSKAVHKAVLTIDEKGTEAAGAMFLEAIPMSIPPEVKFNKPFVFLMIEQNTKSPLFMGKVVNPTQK

These results are taken from US20240174712A1, “COMPOSITIONS AND METHODS FOR PURIFYING ALPHA-1 ANTITRYPSIN USING PEPTIDE LIGANDS” (North Carolina State University, priority 2022, published 2024).

Results are given in words; binding and its absence hold for the method and conditions named. Some results given as binding are weak or reduced against the parent protein; the word gives no strength.

B1: FHWNHWFH on GSG-ChemMatrix library bead (peptide)
peptide: FHWNHWFHGSG
modifications: C-terminus on HMBA-ChemMatrix resin bead
B1: the binding result is “binds”.

B2: WNKKWK on GSG-ChemMatrix library bead (peptide)
peptide: WNKKWKGSG
modifications: C-terminus on HMBA-ChemMatrix resin bead
With B2, the binding result was “binds”.

B3: FEKWAKAH on GSG-ChemMatrix library bead (peptide)
peptide: FEKWAKAHGSG
modifications: C-terminus on HMBA-ChemMatrix resin bead
As to B3, the binding result is “binds”.

B4: KAWFKHWN on GSG-ChemMatrix library bead (peptide)
peptide: KAWFKHWNGSG
modifications: C-terminus on HMBA-ChemMatrix resin bead
Take B4: the binding result is “binds”.

B5: KHAWIF on GSG-ChemMatrix library bead (peptide)
peptide: KHAWIFGSG
modifications: C-terminus on HMBA-ChemMatrix resin bead
Turning to B5, the binding result is recorded as “binds”.

B6: KAKHKE on GSG-ChemMatrix library bead (peptide)
peptide: KAKHKEGSG
modifications: C-terminus on HMBA-ChemMatrix resin bead
As for B6, the binding entry is on record as “binds”.

B7: SHWHWA on GSG-ChemMatrix library bead (peptide)
peptide: SHWHWAGSG
modifications: C-terminus on HMBA-ChemMatrix resin bead
Turning to B7, the binding entry is “binds”.

B8: KWKHSHKW on GSG-ChemMatrix library bead (peptide)
peptide: KWKHSHKWGSG
modifications: C-terminus on HMBA-ChemMatrix resin bead
B8: the binding entry was “binds”.

B9: WNHSIFFH on GSG-ChemMatrix library bead (peptide)
peptide: WNHSIFFHGSG
modifications: C-terminus on HMBA-ChemMatrix resin bead
As for B9, the binding result is reported as “binds”.

B10: FKHNAISA on GSG-ChemMatrix library bead (peptide)
peptide: FKHNAISAGSG
modifications: C-terminus on HMBA-ChemMatrix resin bead
Turning to B10, the binding result is reported as “binds”.

B11: AHIHFSEK on GSG-ChemMatrix library bead (peptide)
peptide: AHIHFSEKGSG
modifications: C-terminus on HMBA-ChemMatrix resin bead
As to B11, the binding entry is recorded as “binds”.

B12: NHNKIH on GSG-ChemMatrix library bead (peptide)
peptide: NHNKIHGSG
modifications: C-terminus on HMBA-ChemMatrix resin bead
Take B12: the binding entry is recorded as “binds”.

B13: IAKAKKWA on GSG-ChemMatrix library bead (peptide)
peptide: IAKAKKWAGSG
modifications: C-terminus on HMBA-ChemMatrix resin bead
For B13, the binding entry is given as “binds”.

B14: EHSSWHSK on GSG-ChemMatrix library bead (peptide)
peptide: EHSSWHSKGSG
modifications: C-terminus on HMBA-ChemMatrix resin bead
For the molecule B14, the binding entry is “binds”.

B15: ANAKIKKK on GSG-ChemMatrix library bead (peptide)
peptide: ANAKIKKKGSG
modifications: C-terminus on HMBA-ChemMatrix resin bead
For B15, the binding result was “binds”.

B16: WHAKKSKF on GSG-ChemMatrix library bead (peptide)
peptide: WHAKKSKFGSG
modifications: C-terminus on HMBA-ChemMatrix resin bead
Regarding B16, the binding result is given as “binds”.

B17: KHSKAIAA on GSG-ChemMatrix library bead (peptide)
peptide: KHSKAIAAGSG
modifications: C-terminus on HMBA-ChemMatrix resin bead
B17: the binding result is given as “binds”.

B18: FSHHSWKF on GSG-ChemMatrix library bead (peptide)
peptide: FSHHSWKFGSG
modifications: C-terminus on HMBA-ChemMatrix resin bead
On to B18, for which the binding result is recorded as “binds”.

B19: ISSFEAAF on GSG-ChemMatrix library bead (peptide)
peptide: ISSFEAAFGSG
modifications: C-terminus on HMBA-ChemMatrix resin bead
Take B19: the binding entry was “binds”.

B20: AAHFHK on GSG-ChemMatrix library bead (peptide)
peptide: AAHFHKGSG
modifications: C-terminus on HMBA-ChemMatrix resin bead
In the case of B20, the binding result is “binds”.

B21: WHAKKSHF on GSG-ChemMatrix library bead (peptide)
peptide: WHAKKSHFGSG
modifications: C-terminus on HMBA-ChemMatrix resin bead
B21: the binding result is recorded as “binds”.

B22: KFHAWN on GSG-ChemMatrix library bead (peptide)
peptide: KFHAWNGSG
modifications: C-terminus on HMBA-ChemMatrix resin bead
In the case of B22, the binding result is “binds”.

B23: NHSKKNIK on GSG-ChemMatrix library bead (peptide)
peptide: NHSKKNIKGSG
modifications: C-terminus on HMBA-ChemMatrix resin bead
Regarding B23, the binding result was “binds”.
